In the supplement of paper PMC10849652:
The other results are listed elsewhere or left out.

Amino acid sequences for entries named in this document (tags omitted). A change or cut given only in a name is not applied to a line headed by its entry.
UniProt Q4VC31: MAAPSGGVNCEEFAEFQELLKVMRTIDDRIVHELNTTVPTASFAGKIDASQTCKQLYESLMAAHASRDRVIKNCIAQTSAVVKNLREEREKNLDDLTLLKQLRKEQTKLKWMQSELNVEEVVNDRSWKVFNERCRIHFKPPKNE
UniProt Q8N4S0: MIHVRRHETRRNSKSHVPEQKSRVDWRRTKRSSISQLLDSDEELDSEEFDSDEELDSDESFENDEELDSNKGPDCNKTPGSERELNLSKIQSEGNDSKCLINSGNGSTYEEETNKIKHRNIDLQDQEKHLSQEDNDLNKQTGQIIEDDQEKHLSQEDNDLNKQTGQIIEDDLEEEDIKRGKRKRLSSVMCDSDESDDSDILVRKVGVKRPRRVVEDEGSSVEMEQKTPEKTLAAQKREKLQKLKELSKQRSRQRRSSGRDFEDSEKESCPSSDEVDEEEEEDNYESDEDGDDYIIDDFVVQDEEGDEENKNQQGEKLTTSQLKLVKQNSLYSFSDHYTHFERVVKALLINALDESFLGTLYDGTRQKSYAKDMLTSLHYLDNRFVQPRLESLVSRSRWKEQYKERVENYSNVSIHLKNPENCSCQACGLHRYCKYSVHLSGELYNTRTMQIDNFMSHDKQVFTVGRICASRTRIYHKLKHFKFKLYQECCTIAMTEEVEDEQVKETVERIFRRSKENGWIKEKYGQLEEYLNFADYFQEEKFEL
UniProt P83916, whole entry, looked up: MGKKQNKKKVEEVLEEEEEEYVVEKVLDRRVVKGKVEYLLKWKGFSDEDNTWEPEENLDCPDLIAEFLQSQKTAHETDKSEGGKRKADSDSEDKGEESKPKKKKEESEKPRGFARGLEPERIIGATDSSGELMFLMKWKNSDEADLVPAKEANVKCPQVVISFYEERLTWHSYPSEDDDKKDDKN
UniProt Q8IUF1: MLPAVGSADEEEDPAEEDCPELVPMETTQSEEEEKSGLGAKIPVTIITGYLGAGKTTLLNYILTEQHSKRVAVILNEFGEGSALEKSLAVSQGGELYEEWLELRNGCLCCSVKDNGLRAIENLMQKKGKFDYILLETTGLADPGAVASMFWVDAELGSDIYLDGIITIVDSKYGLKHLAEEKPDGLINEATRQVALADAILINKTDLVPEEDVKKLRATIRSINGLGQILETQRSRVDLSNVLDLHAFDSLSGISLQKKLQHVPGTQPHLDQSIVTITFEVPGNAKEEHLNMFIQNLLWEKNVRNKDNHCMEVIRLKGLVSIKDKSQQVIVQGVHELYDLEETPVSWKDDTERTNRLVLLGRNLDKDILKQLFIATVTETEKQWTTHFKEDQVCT
UniProt P20248, whole entry, looked up: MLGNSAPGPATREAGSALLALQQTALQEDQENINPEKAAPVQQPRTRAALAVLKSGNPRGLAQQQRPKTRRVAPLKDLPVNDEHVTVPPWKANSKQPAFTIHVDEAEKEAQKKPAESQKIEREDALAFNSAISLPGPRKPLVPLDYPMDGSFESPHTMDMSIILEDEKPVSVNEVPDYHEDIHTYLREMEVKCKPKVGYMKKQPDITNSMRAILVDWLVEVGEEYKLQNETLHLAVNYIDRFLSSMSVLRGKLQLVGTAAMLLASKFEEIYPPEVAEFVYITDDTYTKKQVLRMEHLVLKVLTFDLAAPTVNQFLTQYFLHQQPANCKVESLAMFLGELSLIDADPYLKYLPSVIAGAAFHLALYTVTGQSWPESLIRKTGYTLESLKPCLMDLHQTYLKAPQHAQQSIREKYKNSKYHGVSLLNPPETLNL
UniProt Q6P1N0: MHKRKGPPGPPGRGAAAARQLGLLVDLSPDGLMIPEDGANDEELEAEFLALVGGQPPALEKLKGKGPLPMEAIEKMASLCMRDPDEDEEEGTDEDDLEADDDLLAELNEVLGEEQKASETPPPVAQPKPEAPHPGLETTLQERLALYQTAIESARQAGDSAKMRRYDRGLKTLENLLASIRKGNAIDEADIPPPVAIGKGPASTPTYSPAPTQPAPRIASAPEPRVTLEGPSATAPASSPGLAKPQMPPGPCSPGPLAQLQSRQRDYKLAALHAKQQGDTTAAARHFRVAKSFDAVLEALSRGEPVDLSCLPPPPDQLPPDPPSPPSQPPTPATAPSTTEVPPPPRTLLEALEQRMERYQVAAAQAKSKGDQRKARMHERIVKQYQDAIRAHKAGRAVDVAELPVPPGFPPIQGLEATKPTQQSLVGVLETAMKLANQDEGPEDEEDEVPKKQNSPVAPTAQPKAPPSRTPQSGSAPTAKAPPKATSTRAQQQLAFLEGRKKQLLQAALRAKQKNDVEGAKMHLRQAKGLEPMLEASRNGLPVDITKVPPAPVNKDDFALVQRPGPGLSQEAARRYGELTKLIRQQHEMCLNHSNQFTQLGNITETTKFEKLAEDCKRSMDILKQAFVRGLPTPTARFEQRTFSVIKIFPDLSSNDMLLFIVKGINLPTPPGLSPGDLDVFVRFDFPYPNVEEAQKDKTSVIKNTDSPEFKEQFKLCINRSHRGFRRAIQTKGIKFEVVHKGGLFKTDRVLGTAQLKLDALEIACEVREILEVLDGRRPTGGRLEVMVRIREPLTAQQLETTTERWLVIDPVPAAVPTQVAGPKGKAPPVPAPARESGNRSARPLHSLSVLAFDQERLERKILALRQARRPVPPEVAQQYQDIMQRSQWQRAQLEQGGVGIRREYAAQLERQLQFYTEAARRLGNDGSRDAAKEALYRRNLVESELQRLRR
UniProt Q9Y2G2: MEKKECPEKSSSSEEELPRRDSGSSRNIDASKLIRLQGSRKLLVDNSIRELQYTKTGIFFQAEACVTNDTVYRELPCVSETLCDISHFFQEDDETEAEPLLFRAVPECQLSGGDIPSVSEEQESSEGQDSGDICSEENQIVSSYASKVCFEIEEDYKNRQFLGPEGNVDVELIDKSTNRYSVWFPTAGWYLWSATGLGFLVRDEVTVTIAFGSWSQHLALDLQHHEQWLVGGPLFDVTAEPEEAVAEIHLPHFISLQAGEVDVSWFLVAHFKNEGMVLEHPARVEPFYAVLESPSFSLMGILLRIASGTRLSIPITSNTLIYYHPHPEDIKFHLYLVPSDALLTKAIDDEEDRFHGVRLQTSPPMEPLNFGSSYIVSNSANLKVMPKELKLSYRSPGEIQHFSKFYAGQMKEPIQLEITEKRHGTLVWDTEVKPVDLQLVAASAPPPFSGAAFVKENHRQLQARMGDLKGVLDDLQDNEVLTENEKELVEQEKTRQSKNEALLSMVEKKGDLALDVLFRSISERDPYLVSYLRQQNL
UniProt P08174: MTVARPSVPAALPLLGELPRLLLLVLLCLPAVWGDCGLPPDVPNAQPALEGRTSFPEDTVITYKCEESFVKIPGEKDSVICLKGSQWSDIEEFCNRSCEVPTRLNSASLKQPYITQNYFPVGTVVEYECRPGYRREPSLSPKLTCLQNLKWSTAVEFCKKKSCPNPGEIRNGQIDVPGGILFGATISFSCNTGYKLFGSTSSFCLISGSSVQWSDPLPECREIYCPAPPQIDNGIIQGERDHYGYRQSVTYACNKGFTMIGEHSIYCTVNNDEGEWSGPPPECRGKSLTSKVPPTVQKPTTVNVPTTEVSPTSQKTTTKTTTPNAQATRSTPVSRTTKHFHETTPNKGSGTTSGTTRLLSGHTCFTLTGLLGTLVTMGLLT
UniProt Q7Z6B0: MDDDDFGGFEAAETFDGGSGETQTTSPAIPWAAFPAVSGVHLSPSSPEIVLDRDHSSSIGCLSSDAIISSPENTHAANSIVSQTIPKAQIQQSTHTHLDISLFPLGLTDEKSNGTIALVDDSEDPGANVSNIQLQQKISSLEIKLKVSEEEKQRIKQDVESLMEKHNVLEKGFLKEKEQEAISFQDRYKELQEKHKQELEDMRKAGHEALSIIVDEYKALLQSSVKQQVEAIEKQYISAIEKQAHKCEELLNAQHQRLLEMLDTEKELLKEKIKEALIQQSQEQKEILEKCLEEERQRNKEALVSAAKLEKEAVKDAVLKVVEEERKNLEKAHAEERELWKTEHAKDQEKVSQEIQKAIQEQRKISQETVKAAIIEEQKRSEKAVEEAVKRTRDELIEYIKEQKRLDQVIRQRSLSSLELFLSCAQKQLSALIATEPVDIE
UniProt Q96S94: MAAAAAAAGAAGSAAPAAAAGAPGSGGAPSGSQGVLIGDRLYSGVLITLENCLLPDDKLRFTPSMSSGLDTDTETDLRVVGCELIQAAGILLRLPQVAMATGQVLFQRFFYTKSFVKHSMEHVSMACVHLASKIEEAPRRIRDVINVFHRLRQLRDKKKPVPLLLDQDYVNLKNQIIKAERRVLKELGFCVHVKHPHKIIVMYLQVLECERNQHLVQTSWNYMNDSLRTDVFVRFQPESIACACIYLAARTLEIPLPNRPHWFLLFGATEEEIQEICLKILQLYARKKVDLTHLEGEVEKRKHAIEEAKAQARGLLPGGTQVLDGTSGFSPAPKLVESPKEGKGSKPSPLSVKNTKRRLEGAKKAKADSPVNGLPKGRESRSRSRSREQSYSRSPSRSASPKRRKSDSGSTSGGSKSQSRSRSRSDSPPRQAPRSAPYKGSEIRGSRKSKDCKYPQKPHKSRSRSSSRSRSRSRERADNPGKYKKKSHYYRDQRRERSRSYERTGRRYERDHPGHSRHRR
UniProt A6NHX0: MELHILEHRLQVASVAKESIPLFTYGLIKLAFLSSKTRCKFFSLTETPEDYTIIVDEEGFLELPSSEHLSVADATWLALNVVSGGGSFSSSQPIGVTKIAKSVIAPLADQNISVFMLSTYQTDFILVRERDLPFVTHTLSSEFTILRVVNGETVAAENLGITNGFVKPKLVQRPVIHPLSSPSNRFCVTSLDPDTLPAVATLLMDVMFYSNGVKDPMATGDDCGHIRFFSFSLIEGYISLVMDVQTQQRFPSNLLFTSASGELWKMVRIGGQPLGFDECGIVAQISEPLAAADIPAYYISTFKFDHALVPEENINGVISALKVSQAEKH
UniProt P15529: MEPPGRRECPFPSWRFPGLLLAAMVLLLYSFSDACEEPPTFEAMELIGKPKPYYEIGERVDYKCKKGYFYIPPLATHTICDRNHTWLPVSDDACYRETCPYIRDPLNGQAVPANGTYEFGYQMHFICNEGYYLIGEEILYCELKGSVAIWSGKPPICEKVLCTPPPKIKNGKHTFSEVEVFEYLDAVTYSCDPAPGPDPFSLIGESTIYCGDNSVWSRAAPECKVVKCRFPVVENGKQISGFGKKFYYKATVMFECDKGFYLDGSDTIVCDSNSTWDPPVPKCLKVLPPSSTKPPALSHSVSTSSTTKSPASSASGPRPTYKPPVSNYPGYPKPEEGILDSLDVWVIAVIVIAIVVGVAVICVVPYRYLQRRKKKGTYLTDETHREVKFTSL
UniProt Q08722, whole entry, looked up: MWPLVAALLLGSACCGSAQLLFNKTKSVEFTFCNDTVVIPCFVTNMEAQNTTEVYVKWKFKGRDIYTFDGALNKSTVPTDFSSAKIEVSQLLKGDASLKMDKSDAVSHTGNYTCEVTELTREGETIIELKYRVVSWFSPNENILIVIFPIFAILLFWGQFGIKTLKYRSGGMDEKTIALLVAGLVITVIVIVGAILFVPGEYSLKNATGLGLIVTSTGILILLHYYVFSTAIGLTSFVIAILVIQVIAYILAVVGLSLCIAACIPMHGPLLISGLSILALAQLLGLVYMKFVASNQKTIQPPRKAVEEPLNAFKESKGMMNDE
UniProt Q9HA77: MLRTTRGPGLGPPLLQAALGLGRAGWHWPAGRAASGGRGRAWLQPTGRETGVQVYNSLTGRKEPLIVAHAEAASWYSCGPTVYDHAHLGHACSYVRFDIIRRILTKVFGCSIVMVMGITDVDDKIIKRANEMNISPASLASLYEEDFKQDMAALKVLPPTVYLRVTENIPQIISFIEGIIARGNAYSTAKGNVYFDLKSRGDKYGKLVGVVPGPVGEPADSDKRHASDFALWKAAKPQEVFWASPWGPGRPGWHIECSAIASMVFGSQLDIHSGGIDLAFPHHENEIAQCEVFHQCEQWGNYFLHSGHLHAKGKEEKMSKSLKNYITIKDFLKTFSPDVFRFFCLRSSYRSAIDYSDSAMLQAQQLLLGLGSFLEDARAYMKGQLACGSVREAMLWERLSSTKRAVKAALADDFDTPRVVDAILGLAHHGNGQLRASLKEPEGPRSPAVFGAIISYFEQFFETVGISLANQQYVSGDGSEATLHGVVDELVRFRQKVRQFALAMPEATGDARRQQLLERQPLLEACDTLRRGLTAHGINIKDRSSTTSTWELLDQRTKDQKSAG
UniProt P14635, whole entry, looked up: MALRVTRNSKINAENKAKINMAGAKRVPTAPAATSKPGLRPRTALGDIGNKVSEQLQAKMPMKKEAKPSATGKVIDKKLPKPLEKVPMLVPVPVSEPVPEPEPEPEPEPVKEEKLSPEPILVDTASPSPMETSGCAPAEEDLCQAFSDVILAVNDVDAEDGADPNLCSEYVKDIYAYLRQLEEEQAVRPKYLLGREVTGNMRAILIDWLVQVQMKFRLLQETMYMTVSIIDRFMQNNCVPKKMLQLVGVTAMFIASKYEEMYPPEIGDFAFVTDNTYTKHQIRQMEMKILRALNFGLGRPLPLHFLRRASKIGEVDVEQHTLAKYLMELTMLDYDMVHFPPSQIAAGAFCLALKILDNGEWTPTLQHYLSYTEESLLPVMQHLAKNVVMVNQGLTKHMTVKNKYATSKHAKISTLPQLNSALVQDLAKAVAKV

Compound: CCCS(=O)(=O)Nc1ccc(F)c(C(=O)c2c[nH]c3ncc(-c4ccc(Cl)cc4)cc23)c1F [vemurafenib]
Assay: log2 fold change, soluble protein after heating vs DMSO (PISA); higher = thermal stabilisation; K562 lysate, 10 uM; active = over 0.2 and 3.5 SD of the protein, either way, in both replicates (recomputed)
Summary of the method: (§1)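 K562 pellets were dounce-homogenised in PBS pH 7.4 with 1 mM MgCl2, and the crude extract at 1 mg/mL protein was treated with 10 μM compound for 30 min. Aliquots were heated for 3 min across 48°C-58°C, pooled, and brought to 0.5% NP-40 at 4°C; soluble protein was the supernatant after 21,000xg for 90 min. Soluble protein was quantified by TMTpro 16plex LC-MS/MS with channel sums equalised, and reported as log2 fold change in thermal stability against DMSO controls, with values from duplicates.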

log2 fold change, inactive:
CASP2 (UniProt P42575) -0.019, CCDC50 isoform 2 (UniProt Q8IVM0) -0.046, CCDC58 (UniProt Q4VC31) 0.005, CARM1 (UniProt Q86X55) 0.002, CCDC82 (UniProt Q8N4S0) -0.098, CCDC57 (UniProt Q2TAC2) 0.01, CCT8 (UniProt P50990) -0.004, CCDC124 (UniProt Q96CT7) -0.065, CBX1 (UniProt P83916) 0.001, CCZ1 (UniProt P86791) 0.032, CCT3 (UniProt P49368) -0.021, CBWD2 (UniProt Q8IUF1) 0.055, CAT (UniProt P04040) 0.005, CCNA2 (UniProt P20248) -0.033, CBS (UniProt P35520) -0.073, CCDC88C (UniProt Q9P219) 0.028, CC2D1A (UniProt Q6P1N0) -0.033, CCDC90B (UniProt Q9GZT6) 0.013, CARD8 isoform 5 (UniProt Q9Y2G2) -0.115, CC2D1B isoform 2 (UniProt Q5T0F9) -0.017, CBFB isoform 2 (UniProt Q13951) 0.04, CD55 isoform 7 (UniProt P08174) 0.004, CCDC91 (UniProt Q7Z6B0) -0.006, CCT7 (UniProt Q99832) -0.016, CBLB (UniProt Q13191) -0.039, CD2AP (UniProt Q9Y5K6) 0.02, CCNL2 (UniProt Q96S94) 0.047, CASTOR2 (UniProt A6NHX0) 0.123, CD46 isoform 2 (UniProt P15529) -0.019, CD47 (UniProt Q08722) 0.008, CARS2 (UniProt Q9HA77) 0.033, CCNB1 (UniProt P14635) 0.032, CBFA2T3 (UniProt O75081) -0.043

Compound: CCCS(=O)(=O)Nc1ccc(F)c(C(=O)c2c[nH]c3ncc(Cl)cc23)c1F
Assay: as above
Summary of the method: as §1

log2 fold change, inactive:
CASP2 (UniProt P42575) 0.069, CCDC50 isoform 2 (UniProt Q8IVM0) -0.005, CCDC58 (UniProt Q4VC31) 0, CARM1 (UniProt Q86X55) 0.007, CCDC82 (UniProt Q8N4S0) -0.176, CCDC57 (UniProt Q2TAC2) -0.028, CCT8 (UniProt P50990) -0.014, CCDC124 (UniProt Q96CT7) -0.012, CBX1 (UniProt P83916) 0.015, CCZ1 (UniProt P86791) 0.002, CCT3 (UniProt P49368) 0.005, CBWD2 (UniProt Q8IUF1) -0.034, CAT (UniProt P04040) -0.022, CCNA2 (UniProt P20248) -0.004, CBS (UniProt P35520) 0.009, CCDC88C (UniProt Q9P219) 0.047, CC2D1A (UniProt Q6P1N0) 0.015, CCDC90B (UniProt Q9GZT6) 0.002, CARD8 isoform 5 (UniProt Q9Y2G2) 0.05, CC2D1B isoform 2 (UniProt Q5T0F9) 0.027, CBFB isoform 2 (UniProt Q13951) -0.015, CD55 isoform 7 (UniProt P08174) -0.057, CCDC91 (UniProt Q7Z6B0) -0.007, CCT7 (UniProt Q99832) 0.013, CBLB (UniProt Q13191) 0.029, CD2AP (UniProt Q9Y5K6) -0.006, CCNL2 (UniProt Q96S94) -0.03, CASTOR2 (UniProt A6NHX0) 0.004, CD46 isoform 2 (UniProt P15529) -0.009, CD47 (UniProt Q08722) -0.028, CARS2 (UniProt Q9HA77) 0.03, CCNB1 (UniProt P14635) -0.021, CBFA2T3 (UniProt O75081) 0.018

Compound: CCN(CCCOc1ccc2c(Nc3cc(CC(=O)Nc4cccc(F)c4)[nH]n3)ncnc2c1)CCOP(=O)(O)O [barasertib]
Assay: as above
Summary of the method: as §1

log2 fold change, inactive:
CASP2 (UniProt P42575) -0.05, CCDC50 isoform 2 (UniProt Q8IVM0) 0.002, CCDC58 (UniProt Q4VC31) 0.006, CARM1 (UniProt Q86X55) -0.005, CCDC82 (UniProt Q8N4S0) -0.037, CCDC57 (UniProt Q2TAC2) 0.058, CCT8 (UniProt P50990) -0.019, CCDC124 (UniProt Q96CT7) -0.032, CBX1 (UniProt P83916) -0.075, CCZ1 (UniProt P86791) 0.005, CCT3 (UniProt P49368) -0.037, CBWD2 (UniProt Q8IUF1) -0.011, CAT (UniProt P04040) -0.012, CCNA2 (UniProt P20248) -0.056, CBS (UniProt P35520) -0.021, CCDC88C (UniProt Q9P219) 0.282, CC2D1A (UniProt Q6P1N0) 0.05, CCDC90B (UniProt Q9GZT6) 0.061, CARD8 isoform 5 (UniProt Q9Y2G2) 0.08, CC2D1B isoform 2 (UniProt Q5T0F9) -0.027, CBFB isoform 2 (UniProt Q13951) -0.036, CD55 isoform 7 (UniProt P08174) 0.044, CCDC91 (UniProt Q7Z6B0) -0.006, CCT7 (UniProt Q99832) -0.027, CBLB (UniProt Q13191) -0.026, CD2AP (UniProt Q9Y5K6) -0.042, CCNL2 (UniProt Q96S94) 0.067, CASTOR2 (UniProt A6NHX0) -0.018, CD46 isoform 2 (UniProt P15529) 0.011, CD47 (UniProt Q08722) -0.011, CARS2 (UniProt Q9HA77) 0, CCNB1 (UniProt P14635) 0.019, CBFA2T3 (UniProt O75081) -0.055
